Measurements reported in PubChem BioAssay AID1508588 (Peter MacCallum Cancer Centre, 2020).
In all, the deposit lists about 18,000 reagents; this is an unselected part. Of all reagents, 790 (4.4%) got an active call. 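Calls rest on a combination of fold-change classes in drug and vehicle arms, not all shown here.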

Aim: 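Which gene losses make BRAF-mutant melanoma cells more responsive to vemurafenib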 (primary screen)
Cells: human WM266.4 melanoma cells (BRAF V600 mutant)
Reagents: siRNA pool against human genes, 40 nM
Duration: 96 h from transfection to read-out
Treatment: vemurafenib 300 nM (about IC25), added 48 h after transfection, for 48 h; comparison arm got DMSO vehicle only
Read-out: 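Cell gain (DAPI nuclei at end minus before drug, mean of two replicates) and medium lactate by absorbance per cell, both as ratio to non-targeting siRNA, also grouped into fold-change classes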
Direction: cell gain with vemurafenib: higher = more cell gain than with non-targeting siRNA; lactate per cell with vemurafenib: higher = more lactate made per cell
Call rule: 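a knock-down counts as enhancing when its fold-change classes with vehicle and with vemurafenib, taken together, show a stronger drug effect on cell gain or lactate per cell; exact class pairs not stated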
Calls: active = enhances vemurafenib effect; inactive = no enhancement seen

For UQCR10, the entry reads cell gain with vemurafenib 0.57; lactate per cell with vemurafenib 2.45; inactive. Against TRIM25 the deposit lists cell gain with vemurafenib 0.48; lactate per cell with vemurafenib 1.81; inactive. Knock-down of SNX17 came out at: cell gain with vemurafenib 0.93; lactate per cell with vemurafenib 0.7; inactive. Knock-down of SLK resulted in: cell gain with vemurafenib 0.38; lactate per cell with vemurafenib 1.68; inactive. For FLT3LG, the entry reads cell gain with vemurafenib 0.46; lactate per cell with vemurafenib 1.05; inactive. Depletion of MCOLN3 resulted in: cell gain with vemurafenib 0.51; lactate per cell with vemurafenib 0.7; active.

With knock-down of OVCA2, the record shows cell gain with vemurafenib 0.98; lactate per cell with vemurafenib 0.76; inactive. With knock-down of RSPH3, the screen gave cell gain with vemurafenib 0.72; lactate per cell with vemurafenib 0.62; inactive. For CA14, the entry reads cell gain with vemurafenib 0.12; lactate per cell with vemurafenib 1.22; inactive.

Reformatted: entries from further up.
gene knocked down,cell gain with vemurafenib,lactate per cell with vemurafenib,outcome
SNX17,0.93,0.7,inactive
SLK,0.38,1.68,inactive

Further entries follow:
Silencing of ZNF418 came out at: cell gain with vemurafenib 0.71; lactate per cell with vemurafenib 0.54; inactive. PHYHIP gave cell gain with vemurafenib 0.18; lactate per cell with vemurafenib 0.85; inactive. Knock-down of KCNF1 gave: cell gain with vemurafenib 0.64; lactate per cell with vemurafenib 0.52; inactive. After knock-down of CHP1 the results were cell gain with vemurafenib 0.44; lactate per cell with vemurafenib 0.33; inactive. After knock-down of ASB9, the screen gave cell gain with vemurafenib 1.08; lactate per cell with vemurafenib 0.74; inactive. For ACCS, the values are cell gain with vemurafenib 0.38; lactate per cell with vemurafenib 0.66; inactive.

ANKFN1 gave cell gain with vemurafenib 0.71; lactate per cell with vemurafenib 0.36; inactive. After knock-down of NSUN5P2 the results were cell gain with vemurafenib 0.46; lactate per cell with vemurafenib 0.38; inactive. PTPRC scored cell gain with vemurafenib 0.88; lactate per cell with vemurafenib 0.8; inactive. Against RNASE3, the entry reads cell gain with vemurafenib 0.54; lactate per cell with vemurafenib 0.74; inactive. TRPV3 showed cell gain with vemurafenib 0.29; lactate per cell with vemurafenib 0.79; inactive. After knock-down of TBC1D31, the screen gave cell gain with vemurafenib 0.7; lactate per cell with vemurafenib 0.36; inactive.

RASL11B showed cell gain with vemurafenib 0.78; lactate per cell with vemurafenib 0.61; inactive. SERPINB1 showed cell gain with vemurafenib 0.01; lactate per cell with vemurafenib 2.04; inactive. Depletion of TBX15 came out at: cell gain with vemurafenib 0.91; lactate per cell with vemurafenib 1.6; inactive. Knock-down of SCN3B resulted in: cell gain with vemurafenib 0.87; lactate per cell with vemurafenib 0.56; inactive. After knock-down of OR4P4, the screen gave cell gain with vemurafenib 1.26; lactate per cell with vemurafenib 0.68; inactive. RETSAT scored cell gain with vemurafenib 0.31; lactate per cell with vemurafenib 0.55; inactive.
